According to paper PMC5058672:
No constants are given. Whether binding was seen depends on the method and setting. Binding seen in cells or lysates may run through a third protein. Some binding calls cover weakened binding; strength is not graded here.

By UniProt entry, the sequences of proteins in these tests, tags left out.
UniProt P48436: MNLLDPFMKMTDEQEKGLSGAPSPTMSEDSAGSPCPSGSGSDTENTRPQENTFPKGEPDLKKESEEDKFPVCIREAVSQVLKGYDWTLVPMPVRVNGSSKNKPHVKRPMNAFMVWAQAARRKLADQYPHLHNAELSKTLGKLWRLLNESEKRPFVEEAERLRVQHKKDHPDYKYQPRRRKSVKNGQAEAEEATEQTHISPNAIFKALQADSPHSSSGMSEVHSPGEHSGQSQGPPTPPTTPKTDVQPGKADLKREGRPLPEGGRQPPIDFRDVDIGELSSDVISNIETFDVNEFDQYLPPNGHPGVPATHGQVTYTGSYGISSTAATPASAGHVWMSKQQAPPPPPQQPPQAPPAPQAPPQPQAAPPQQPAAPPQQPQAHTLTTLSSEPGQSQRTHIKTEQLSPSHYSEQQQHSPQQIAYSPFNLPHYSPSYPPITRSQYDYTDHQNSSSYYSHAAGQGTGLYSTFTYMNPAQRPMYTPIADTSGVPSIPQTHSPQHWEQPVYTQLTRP
UniProt P08047: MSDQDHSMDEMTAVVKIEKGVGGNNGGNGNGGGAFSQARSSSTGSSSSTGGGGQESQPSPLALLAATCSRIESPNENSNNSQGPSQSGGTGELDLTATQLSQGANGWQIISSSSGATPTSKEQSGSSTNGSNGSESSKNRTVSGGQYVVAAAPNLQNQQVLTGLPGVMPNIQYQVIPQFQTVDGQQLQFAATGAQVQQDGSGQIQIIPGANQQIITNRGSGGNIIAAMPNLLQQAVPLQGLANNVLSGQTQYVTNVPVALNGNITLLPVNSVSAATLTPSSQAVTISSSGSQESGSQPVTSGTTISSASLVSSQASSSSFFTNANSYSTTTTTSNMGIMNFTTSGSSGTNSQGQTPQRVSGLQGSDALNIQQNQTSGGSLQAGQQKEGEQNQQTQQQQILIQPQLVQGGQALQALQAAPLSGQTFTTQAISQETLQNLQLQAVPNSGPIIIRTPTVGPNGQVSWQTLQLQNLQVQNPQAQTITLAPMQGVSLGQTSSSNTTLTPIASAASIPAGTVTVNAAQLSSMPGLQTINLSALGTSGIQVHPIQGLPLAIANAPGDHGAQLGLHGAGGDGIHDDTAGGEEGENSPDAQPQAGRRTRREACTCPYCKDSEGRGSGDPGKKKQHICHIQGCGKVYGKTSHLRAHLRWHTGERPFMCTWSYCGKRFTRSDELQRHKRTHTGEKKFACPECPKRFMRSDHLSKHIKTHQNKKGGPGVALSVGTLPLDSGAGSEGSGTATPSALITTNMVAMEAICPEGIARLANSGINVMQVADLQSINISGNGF

Target: SOX9 (sex determining region Y [SRY]-related HMG-box 9) (human (endogenous in 526mel and 624mel)) (UniProt P48436)
Assay: co-IP; 5x10^6 526mel or 624mel cells cross-linked with DSP, lysed in RIPA buffer; anti-SOX9 or anti-vinculin antibody on Surebeads magnetic beads, lysate overnight at 4°C, washed with PBS-T; immunoblot for Sp1

binding: binds
Substance: Sp1 (from UniProt P08047 1-785)
